Data reported in paper doi:10.1101/488536.
These are yes or no findings as the source states them, for the method shown. Some binding calls cover weakened binding; strength is not graded here. Sequences can lack the tags named with a protein.

T1: ICR1 (Interactor of Constitutively active ROP 1), pGBT-ICR1 two-hybrid fusion (Arabidopsis) (UniProt Q8LE98)
T1 sequence: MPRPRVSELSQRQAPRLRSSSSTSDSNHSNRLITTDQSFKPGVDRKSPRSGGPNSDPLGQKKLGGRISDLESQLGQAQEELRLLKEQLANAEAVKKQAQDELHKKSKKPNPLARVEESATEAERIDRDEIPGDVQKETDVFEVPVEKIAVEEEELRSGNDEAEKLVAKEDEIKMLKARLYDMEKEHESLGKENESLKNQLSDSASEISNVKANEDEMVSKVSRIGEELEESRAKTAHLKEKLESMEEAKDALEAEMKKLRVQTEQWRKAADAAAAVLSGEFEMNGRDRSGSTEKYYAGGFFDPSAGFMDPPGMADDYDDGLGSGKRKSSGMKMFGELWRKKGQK

T2: ICR2, pGBT-ICR2 two-hybrid fusion (Arabidopsis) (UniProt Q9ZQC5)
T2 sequence: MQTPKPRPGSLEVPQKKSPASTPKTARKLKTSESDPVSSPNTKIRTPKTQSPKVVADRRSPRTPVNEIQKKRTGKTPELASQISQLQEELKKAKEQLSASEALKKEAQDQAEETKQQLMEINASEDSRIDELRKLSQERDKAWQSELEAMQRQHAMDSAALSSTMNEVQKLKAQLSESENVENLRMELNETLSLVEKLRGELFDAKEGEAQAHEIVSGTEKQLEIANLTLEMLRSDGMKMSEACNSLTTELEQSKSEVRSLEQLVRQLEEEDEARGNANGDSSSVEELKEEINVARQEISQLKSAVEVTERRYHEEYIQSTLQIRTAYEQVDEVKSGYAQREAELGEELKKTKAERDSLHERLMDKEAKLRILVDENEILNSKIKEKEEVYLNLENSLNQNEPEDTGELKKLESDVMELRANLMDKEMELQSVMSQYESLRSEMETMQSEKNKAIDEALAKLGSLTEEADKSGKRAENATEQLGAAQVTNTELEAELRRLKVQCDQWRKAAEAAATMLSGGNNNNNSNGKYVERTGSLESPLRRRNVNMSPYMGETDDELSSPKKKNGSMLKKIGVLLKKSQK

T3: ICR4, pGBT-ICR4 two-hybrid fusion (Arabidopsis) (UniProt Q9M9F9)
T3 sequence: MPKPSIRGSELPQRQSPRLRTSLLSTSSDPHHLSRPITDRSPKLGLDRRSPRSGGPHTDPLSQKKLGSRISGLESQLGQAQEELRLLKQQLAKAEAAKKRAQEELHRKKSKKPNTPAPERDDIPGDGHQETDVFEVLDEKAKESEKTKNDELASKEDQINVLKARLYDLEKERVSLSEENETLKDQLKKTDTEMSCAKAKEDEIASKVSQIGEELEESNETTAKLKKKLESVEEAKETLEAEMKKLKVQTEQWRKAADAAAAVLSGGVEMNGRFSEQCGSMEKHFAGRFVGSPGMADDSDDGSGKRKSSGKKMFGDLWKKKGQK

T4: GST-ICR1 (Arabidopsis) (UniProt Q8LE98)
T4 sequence: T1 sequence

B1: CMI1 (Ca^2+ sensor Modulator of ICR1), pGAD-CMI1 two-hybrid fusion (protein, UniProt O81831 1-130)
chain: MASPKSPTRPTQQNPQPNFHDFLPTMAGNLGGEGLIGELCNGFELLMDREKGVITFESLRRNAAAVLGLGDLTDEDVRCMIKEGDFDCDGALNQMEFCVLMFRLSPDLMEASRCLVTEVIEEEFGFTRRH
B2: His6-CMI1 (protein, UniProt O81831 1-130)
chain: B1 chain

Columns and labels:
[1] = target: T1, ICR1 (Interactor of Constitutively active ROP 1), pGBT-ICR1 two-hybrid fusion (Arabidopsis); test: two-hybrid
[2] = target: T2, ICR2, pGBT-ICR2 two-hybrid fusion (Arabidopsis); test: two-hybrid
[3] = target: T3, ICR4, pGBT-ICR4 two-hybrid fusion (Arabidopsis); test: two-hybrid
[4] = target: T4, GST-ICR1 (Arabidopsis); test: pull-down

Binder | binding [1] | binding [2] | binding [3] | binding [4]
B1 | binds | no binding | no binding | –
B2 | – | – | – | no binding (condition: with 10 mM EGTA)
